Data on 58 molecules can be found in PubChem BioAssay AID2685 (National Center for Advancing Translational Sciences (NCATS), 2010).

The other results are listed elsewhere or left out. Further columns of the screen follow, without active or inactive calls. Most of these compounds were active or inconclusive in the main read-out, so they are no random draw. The note in brackets gives the kind of curve behind each potency; many fits are weak.

This test is described as follows: qHTS Assay for Lipid Storage Modulators in Drosophila S3 Cells.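 For cell number change: cells counted by Cell Tracker Red CMTPX staining in the red channel.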 As to conditions: BODIPY lipid droplet fluorescence, 18-24 h; for cell number change: measured here: cell count max response, cells fed with added oleic acid. A digest of the protocol:
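Laser-scanning cytometry quantifies lipid droplet accumulation (500–530 nm total intensity; droplet/cell object ratio) in oleic acid-fed (400 uM added) Drosophila S3 cells treated with a concentration series. 20 uM Triacsin C defined 100% inhibition.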

Where [1] appears, read: measured here: cell number channel AC50, cells fed with added oleic acid.
Where [2] appears, read: measured here: lipid fluorescence (Fed channel) AC50, cells fed with added oleic acid.

With `O=C(CCN1C(=O)CSc2ccccc21)Nc1ccc(OC(F)(F)F)cc1`, the cell number change was -7.06%. Also, the AC50 under setting [1] is 2.31 µM [falling, partial curve]. Consider `COc1ccc(-c2cn(Cc3ccc4ccccc4c3)nn2)cc1`, for which the cell number change came to 47.2%. Besides, under setting [1], the AC50 is 8.2 µM [rising, partial curve, poor fit]. Besides, the AC50 under setting [2] is 29.1 µM [rising, single point]. `Cn1c2ccccc2n2c(=O)c(=O)n(CC(=O)c3ccc(Cl)cc3)nc12`: the cell number change was -42.3%. Further, the AC50 under setting [1] is 29.1 µM [falling, single point]. The AC50 under setting [2] was 29.1 µM [falling, single point].

With `O=C(CSc1ccc2c(c1)OCCO2)NC(=O)NC1CCCC1`, the cell number change was determined as 1.7%. As to `CC(=O)NC(Cc1ccc(F)cc1)C(=O)N1CCN(C(=O)NCc2ccccc2)CC1` (centres undefined), the cell number change is -4.02%. In addition, the AC50 under setting [1] is 3.26 µM [rising, single point]. The AC50 under setting [2] is 2.59 µM [rising, single point]. Regarding `CCC(C(=O)O)n1c2ccccc2c2cn[nH]c(=O)c21` (centres undefined), the cell number change is -2.13%. Further, the AC50 under setting [2] is 6.51 µM [rising, single point]. Turning to `CCn1cc(C(=O)N2CCCc3ccccc32)c2cc(OC)c(OC)cc2c1=O`, the cell number change turned out to be 41.1%. Besides, the AC50 under setting [1] is 8.2 µM [rising, partial curve].

In the case of `CCC(C)OC(=O)C1=C(C)NC(=O)NC1c1ccc(F)cc1` (centres undefined), the cell number change is -31.2%. Further, under setting [1], the AC50 was 4.11 µM [falling, single point]. The AC50 under setting [2] is 6.51 µM [falling, single point].

As for `Cc1cccc(N2CC(C(=O)OCC(=O)c3ccc(OC(=O)c4cccs4)cc3)CC2=O)c1C` (centres undefined), the cell number change is 48.3%. Besides, the AC50 under setting [1] was 29.1 µM [rising, single point]. The AC50 under setting [2] was 23.1 µM [falling, partial curve].

As to `COc1cc(O)c(C(CC(=O)N2CCCCC2)c2ccc(N(C)C)cc2)c(OC)c1` (centres undefined), the cell number change was determined as 26.5%. Further, under setting [2], the AC50 is 0.58 µM [rising, single point]. In the case of `COc1ccc(S(=O)(=O)N(C)C)cc1NC(=O)CSC(C)C(=O)Nc1cc(C)on1` (centres undefined), the cell number change is -39.9%. The AC50 under setting [2] is 32.6 µM [falling, partial curve, poor fit]. Consider `Cc1c(-c2ccc(F)cc2)nc(N)c(C#N)c1-c1ccco1`, for which the cell number change was 1.81%. On to `COc1cccc(NC(=S)Nc2ccc(F)cc2)c1`, for which the cell number change was -7.42%. Besides, the AC50 under setting [2] is 23.1 µM [rising, single point]. On to `C=CC[n+]1cccc(-c2cc3ccc(C)cc3[nH]2)c1`, for which the AC50 under setting [1] is 0.58 µM [falling, single point]. Consider `O=C(CCSc1ccccc1)N1CCN(c2ccccc2)CC1`, for which the AC50 under setting [2] is 0.651 µM [rising, single point]. Take `CCOC(=O)C1=C(C)NC(=O)NC1c1ccc(Br)o1` (centres undefined): the cell number change is -1.01%. Moreover, under setting [1], the AC50 was 0.291 µM [rising, partial curve, poor fit].

As to `O=C(O)CSc1cccc[n+]1[O-]`, the cell number change is -27.4%. Moreover, the AC50 under setting [1] was 0.0517 µM [falling, full curve, poor fit]. Moreover, under setting [2], the AC50 was 2.91 µM [falling, full curve, poor fit].

As for `Cc1ccc(Cl)cc1N(CC(=O)NC1CCCCC1)S(C)(=O)=O`, the cell number change was determined as 1.62%. In addition, under setting [2], the AC50 was 32.6 µM [falling, single point]. In the case of `O=C(NCc1ccccc1)c1onc(CSc2ccc(Cl)cc2)c1C(=O)NCc1ccccc1`, the cell number change came out at 9.02%. Besides, the AC50 under setting [2] is 0.517 µM [rising, partial curve]. In the case of `CC(C)c1ccc(NC2CCCN(C(=O)c3ccnc(Cl)c3)C2)cc1` (centres undefined), the cell number change is 16%. The AC50 under setting [2] was 29.1 µM [rising, single point].

Take `CCc1nnc(NC(=O)C2CCCCN2S(=O)(=O)c2ccccc2)s1` (centres undefined): the cell number change was -9.02%. For the same molecule, under setting [1], the AC50 is 0.164 µM [falling, full curve, poor fit]. For `C[C@@]12C(=O)OC(=O)[C@]1(C)C1CCC2O1`, the cell number change was 0.693%. For the same molecule, the AC50 under setting [2] is 29.1 µM [rising, single point].

Regarding `CN1CCN(CC(=O)Nc2cccc(S(=O)(=O)N(C)c3ccccc3)c2)CC1`, the cell number change was -20.6%. Besides, the AC50 under setting [2] is 8.2 µM [falling, partial curve, poor fit]. For `CC(C)NC(=O)c1cc(-c2cccs2)nc2ccccc12`, the cell number change worked out at 18.2%. Further, the AC50 under setting [2] is 1.46 µM [rising, full curve, poor fit].

With `N#Cc1cc(-c2ccccc2)cnc1Sc1ccc(Cl)cc1`, the cell number change came out at 19.7%. Also, the AC50 under setting [2] is 0.82 µM [falling, full curve, poor fit].

As to `COC(=O)CN(c1cccc(OC)c1)S(C)(=O)=O`, the AC50 under setting [2] was 0.58 µM [falling, single point]. Consider `Cc1ccc(OCC(=O)Nc2nnc(S(=O)(=O)N3CCCCC3)s2)cc1`, for which the cell number change stood at 11.6%. The AC50 under setting [2] was 0.0058 µM [falling, full curve, poor fit]. For the molecule `CCc1cc2c(COC(=O)c3cccc(NS(C)(=O)=O)c3)cc(=O)oc2cc1O`, the cell number change stood at 13.8%. Further, the AC50 under setting [2] was 4.61 µM [falling, partial curve]. Consider `CN(CC(=O)Nc1cccc(F)c1)C(=O)CN1c2cccc3cccc(c23)S1(=O)=O`, for which the cell number change is -23.6%. Further, the AC50 under setting [2] is 0.231 µM [falling, full curve]. As for `Cc1cccc(-c2nc3c(c(SCC(=O)N4CCOCC4)n2)Cc2c(CO)cnc(C)c2O3)c1`, the cell number change is -15.8%. The AC50 under setting [2] was 0.651 µM [falling, full curve]. Consider `Cc1ccc2nc3c(cc(C(=O)NCCc4ccccc4)c(=N)n3CCCN3CCOCC3)c(=O)n2c1`, for which the cell number change came out at 13.7%. The AC50 under setting [2] is 0.259 µM [falling, full curve].

On to `CC(OC(=O)c1ccc2c(=O)n3c(nc2c1)CCCCC3)C(N)=O` (centres undefined), for which the cell number change was determined as 0.308%. Also, the AC50 under setting [1] is 0.092 µM [falling, full curve, poor fit]. Besides, under setting [2], the AC50 was 0.184 µM [falling, full curve, poor fit]. For the molecule `Cc1ccc(C2(C)NC(=O)N(CC(=O)NCCC3=CCCCC3)C2=O)cc1` (centres undefined), the cell number change is -41.6%. In addition, under setting [2], the AC50 was 0.0206 µM [falling, full curve, poor fit]. In the case of `COc1ccc(CN(C)C(=O)COC(=O)c2c(C)nn(-c3ccc(F)cc3)c2Cl)cc1`, the cell number change was -52.5%. The concentration at half-maximal activity (AC50) under setting [1] is 25.9 µM [falling, partial curve]. Under setting [2], the AC50 was 2.91 µM [falling, partial curve, poor fit]. Consider `O=C1C=C(Nc2ccccc2O)c2ccccc2C1=O`, for which the cell number change is -39.7%. For the same molecule, the AC50 under setting [1] was 11.6 µM [falling, partial curve, poor fit]. The half-maximal activity concentration (AC50) under setting [2] was 23.1 µM [falling, partial curve, poor fit]. As to `COC(=O)Nc1nc2c(C)cccc2s1`, the cell number change was -13.8%. Besides, under setting [2], the AC50 is 18.4 µM [falling, single point]. In the case of `COc1cccc(CN2CCC(C(=O)Nc3ccc(Oc4cccnc4)cc3)CC2)c1`, the cell number change is -21%. The AC50 under setting [2] was 6.51 µM [rising, single point]. As for `COc1cc(CNc2ccc3[nH]c(=O)[nH]c3c2)ccc1OCc1ccccc1Cl`, the cell number change was -9.93%. As for `O=C(Cn1nnc(-c2ccccc2Cl)n1)N/N=C/c1ccc(-c2cccc(Cl)c2)o1`, the cell number change is -51.5%. For the same molecule, the AC50 under setting [1] is 11.6 µM [falling, partial curve]. Take `Cc1ccc(C(=O)CCC(=O)Nc2ncccc2O)cc1`: the cell number change was -16.1%. `O=C(NCCc1c[nH]c2ccccc12)c1cncc(Br)c1`: the cell number change was -9.95%. Under setting [2], the AC50 is 29.1 µM [falling, single point]. For `CCC(=O)NN1CCc2cc3ccc(C)cc3nc21`, the AC50 under setting [1] was 6.51 µM [rising, single point].

As to `CCc1ccc(N2CC(C(=O)Nc3ccc(S(=O)(=O)Nc4ncccn4)cc3)CC2=O)cc1` (centres undefined), the cell number change stood at 17.9%. `COc1ccc(CCNc2cc(C)nc3c(-c4ccc(Cl)cc4)cnn23)cc1OC`: the cell number change turned out to be 3.7%. Further, the concentration at half-maximal activity (AC50) under setting [2] was 7.31 µM [falling, partial curve, poor fit]. Regarding `O=C(O)CSc1nnc(Cn2c(=O)sc3ccccc32)n1-c1cccc(Cl)c1`, the cell number change worked out at 6.77%. Also, the AC50 under setting [2] is 0.00461 µM [falling, full curve, poor fit].

As for `COc1ccc(C(CC(=O)N2CCOCC2)c2c(OC)cc(OC)c3c(-c4ccccc4)cc(=O)oc23)cc1` (centres undefined), the cell number change was 23.2%. For the same molecule, under setting [2], the AC50 is 0.082 µM [rising, full curve, poor fit]. `C/C(CC(=O)Nc1c(C)cc(C)cc1C)=N\NC(=O)Cc1ccccc1`: the cell number change was -1.28%. Besides, under setting [2], the AC50 was 5.17 µM [falling, single point].

With `Cc1ccc(C(=O)NC2CCN(C(=O)N3CCOCC3)CC2)cc1`, the cell number change is -2.92%. Further, the AC50 under setting [2] is 0.00517 µM [falling, full curve, poor fit]. Regarding `COc1ccc(C(=O)OCC(=O)NC2CC2)cc1S(=O)(=O)Nc1ccc(C)cc1`, the cell number change is 30.7%. For the same molecule, the AC50 under setting [1] is 0.291 µM [rising, full curve, poor fit]. Besides, the AC50 under setting [2] was 5.8 µM [rising, full curve]. Turning to `c1ccc(-c2nnc(SCc3nc4ccccc4[nH]3)o2)cc1`, the cell number change is -22.6%. Moreover, under setting [2], the AC50 was 1.16 µM [falling, single point]. `CC(C)(Oc1ccc(Cl)cc1)C(=O)NCc1ccc(S(N)(=O)=O)cc1`: the cell number change is 14.1%. The AC50 under setting [1] was 0.13 µM [falling, full curve, poor fit]. Also, under setting [2], the AC50 is 3.66 µM [falling, single point]. Consider `Cc1noc(C)c1COc1cccc(C(=O)OC(C)C(=O)Nc2ccc3c(c2)OCO3)c1` (centres undefined), for which the AC50 under setting [2] is 4.61 µM [rising, single point]. With `Cc1[nH]nc2c1C(CC(C)C)C(C#N)=C(N)O2` (centres undefined), the cell number change was 22%. Besides, the AC50 under setting [1] is 3.26 µM [rising, partial curve, poor fit]. For the molecule `O=C(COc1ccc(F)cc1)OCCN1CCOCC1`, the AC50 under setting [2] was 0.13 µM [falling, full curve, poor fit]. As for `CCOc1ccc(N=C(C)C2=C(O)c3ccccc3C2=O)cc1`, the cell number change amounted to 22.7%.

Regarding `Cn1c(SCC(=O)Nc2cc([N+](=O)[O-])ccc2F)nnc1C(F)(F)F`, the cell number change came out at 2.49%. For `O=S(=O)(NC1CC2CCC1C2)c1ccc(Cl)cc1` (centres undefined), the cell number change is -2.64%. For the same molecule, the AC50 under setting [2] was 6.51 µM [rising, single point]. Regarding `CCN(CC)C(=O)c1cccc(NC(=O)CCc2nc3sc4c(c3c(=O)[nH]2)CCCC4)c1`, the cell number change was 44.2%. For the same molecule, the AC50 under setting [1] was 18.4 µM [rising, single point].
